Measured values as given in article PMC9297664 (Arthritis Research & Therapy, 2022).

Assay: peptide made by a vendor (Fmoc solid-phase peptide synthesis)
Conditions: whole synthesis, reverse-phase C18 HPLC; mass confirmed by MALDI-TOF

RRRR(NNRRR)3R
final HPLC purity: >95%
